Consider one compound from ChEMBL document CHEMBL5030540 (J Med Chem, 2021).

Amino acid sequences for entries named in this document (tags omitted).
UniProt P42866, whole entry: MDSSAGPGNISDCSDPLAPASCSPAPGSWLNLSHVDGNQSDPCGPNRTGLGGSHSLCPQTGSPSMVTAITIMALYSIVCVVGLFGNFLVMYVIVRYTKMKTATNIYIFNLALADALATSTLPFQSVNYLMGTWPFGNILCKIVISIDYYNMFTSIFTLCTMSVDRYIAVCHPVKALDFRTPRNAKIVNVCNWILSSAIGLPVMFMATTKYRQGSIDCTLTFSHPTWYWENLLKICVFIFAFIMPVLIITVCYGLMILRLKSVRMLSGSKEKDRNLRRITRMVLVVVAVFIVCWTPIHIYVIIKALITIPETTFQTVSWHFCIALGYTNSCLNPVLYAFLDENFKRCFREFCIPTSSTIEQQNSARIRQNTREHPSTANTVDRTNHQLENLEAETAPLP

For the test, the target named is Mu-type opioid receptor (Mus musculus) (UniProt P42866). Briefly: Partial agonist activity at mouse MOR expressed in HEK293T cells assessed as Nb33 recruitment by BRET assay relative to control. Format: functional, cell-based. An outline of the steps:
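HEK293T cells transfected with murine MOR-NanoLuc (1 μg) and Nb33-Venus (4 μg) using PEI and used 48 h later. Cells in PBS given coelenterazine H (5 μM), ligand added at 5 min, BRET read 10 min later. Three-parameter fit; ≥3 independent trials in triplicate.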
In general terms: BRET reads energy transfer from a luciferase to a nearby fluorophore.

As to `CO[C@@]12CC[C@@]3(C[C@@H]1[C@@](C)(O)C(C)(C)C)[C@H]1Cc4ccc(O)c5c4[C@@]3(CCN1CC1CC1)[C@H]2O5`, the Emax (in general, the size of the effect at its maximum, as opposed to the concentration needed) is 24%.
